In US7862811B2, “Protease inhibition for prevention or treatment of heart failure” (Regents of the University of Colorado, priority 2004, dated 2011):
At least one structure is not confirmed: it was looked up by name or label, or the drawing left a doubt. Peptide text beside a SMILES is read from it. * marks the point of attachment. Cbz = O=C(OCc1ccccc1)*

How the values were obtained:
[1] = system: RV function during sustained RV pressure overload; assay: sustained RV pressure overload for 4 hrs, global RV stroke work; type: in vivo, pig
myosin = assay: Western immunoblot of myosin in RV myocardial tissue homogenate after acute RV pressure overload; type: in vivo, pig; conditions: Western blot

For `CC(C)[C@H](NC(=O)OCc1ccccc1)C(=O)N[C@H](C=O)Cc1ccccc1` [MDL-28170, carbobezoxy-valinyl-phenylalaninal] (Cbz-Val-Phe-aldehyde), the “pigs that failed to complete the protocol due to RV failure and hypotension” value ([1]; 4 hrs RV pressure overload, four vehicle treated pigs failed) was “no”, the “RV stroke work during 4 hrs RV pressure overload” value ([1]; compared with vehicle-treated pigs, right coronary artery infusion) was “significantly higher” and the “increase in myosin signal in dysfunctional RV myocardium” value (myosin) was “inhibited”.
